The experiment relates to L1210 leukemia ip in BDF1 mice, survival T/C. Briefly: NCI In Vivo Anticancer Drug Screen. Data for tumor model L1210 Leukemia (intraperitoneal) in B6D2F1 (BDF1) mice. To be noted: T/C endpoint: mean survival time, higher T/C = longer survival.
Where [1] appears, read: dose: 200.0 mg/kg/injection, schedule: Q04DX003 (ip), vehicle: Klucel (hydroxypropylcellulose) (HPC).
Setting [2] is: dose: 400.0 mg/kg/injection, schedule: Q04DX003 (ip), vehicle: Klucel (hydroxypropylcellulose) (HPC).
Where [3] appears, read: dose: 400.0 mg/kg/injection, schedule: Q01DX009 (ip), vehicle: Klucel (hydroxypropylcellulose) (HPC).
Setting [4] is: dose: 200.0 mg/kg/injection, schedule: Q01DX009 (ip), vehicle: saline.
Setting [5] is: dose: 400.0 mg/kg/injection, schedule: Q01DX009 (ip), vehicle: saline.
Where [6] appears, read: dose: 200.0 mg/kg/injection, schedule: Q01DX001 (ip), vehicle: saline.
The mark [7] stands for this setting: dose: 400.0 mg/kg/injection, schedule: Q01DX001 (ip), vehicle: saline.
The mark [8] stands for this setting: dose: 300.0 mg/kg/injection, schedule: Q01DX001 (ip), vehicle: other.
Where [9] appears, read: dose: 12.5 mg/kg/injection, schedule: Q01DX009 (ip), vehicle: saline.
[10] abbreviates: dose: 25.0 mg/kg/injection, schedule: Q01DX009 (ip), vehicle: saline.
Where [11] appears, read: dose: 50.0 mg/kg/injection, schedule: Q01DX009 (ip), vehicle: saline.
Setting [12] is: dose: 100.0 mg/kg/injection, schedule: Q01DX009 (ip), vehicle: saline.

Each structure is given as a SMILES string. The list is a part of this screen's results and no random one: it is rich in T/C values a quarter to a half above the control, in often repeated tests (any T/C) and in doses without a T/C. Further doses and runs are listed elsewhere. T/C gives the treated animals as a percentage of the vehicle group. Some doses have a count of surviving animals in place of a T/C: the source holds a T/C of zero for them, seemingly a mark for toxic or unscored doses. Some survivor counts are full or nearly so, which does not show that the dose was tolerated: the source hardly ever lists a survival T/C far under the control, and the zero likely stands for such cases as well. Counts of survivors are from the toxicity check (mostly the fifth day) where no day follows; animals may have died later. Schedules are NCI's codes, read here as Q, the interval in days (D) or hours (H), X, the number of doses. Some schedule codes hold Z or #, which are not explained here. For survival time, this PubChem deposit counts one and a half times the control or more as active, and values a quarter to a half above the control carry no call in these data; other NCI protocols may use other cut-offs. Some doses were run more than once; the values are given in rising order.

In the case of `CN(C)C(=S)Oc1ccccn1`, the survivor count is 3 of 6 under setting [1] and 0 of 6 under setting [2].
Regarding `Cc1ccc(N=Nc2ccc(C)cc2NC(=O)Nc2cc(Cl)ccc2C)cc1`, the survivor count under setting [3] is listed as 3 of 6.
`CCN(CC)CC(=O)NCC(CCN(C)C)(c1ccc2ccccc2c1)C(C)C` (stereo unspecified): the survivor count is, setting by setting: under setting [4], 1 of 6; under setting [5], 0 of 6.
Consider `O=C1/C(=C/c2ccc([N+](=O)[O-])cc2)SC(=S)N1C1OC(CO)C(O)C(O)C1O` (stereo unspecified), for which the survivor count is reported as 3 of 6 (dose: 200.0 mg/kg/injection, schedule: Q01DX005 (ip), vehicle: water) and 0 of 6 (dose: 400.0 mg/kg/injection, schedule: Q01DX005 (ip), vehicle: water).
Consider `NNc1nncn1N`, for which the survivor count (dose: 400.0 mg/kg/injection, schedule: Q04DX003 (ip), vehicle: saline) was 5 of 6.
With `NC(=S)c1ccc(Cl)cc1`, the survivor count (dose: 400.0 mg/kg/injection, schedule: Q01DX009 (ip), vehicle: saline with Tween-80) was 2 of 6.
In the case of `C1CCC2(CC1)CCNCC2`, the survivor count (dose: 100.0 mg/kg/injection, schedule: Q01DX001 (ip), vehicle: saline) was 1 of 4; the survivor count under setting [6] is 0 of 4; the survivor count under setting [7] is on record as 0 of 4.
Consider `Cc1c(N)nc(N)nc1C(=O)O`, for which the survivor count is listed as 1 of 5 (dose: 100.0 mg/kg/injection, schedule: Q01DX001 (ip), vehicle: Klucel (hydroxypropylcellulose) (HPC)); 0 of 6 (dose: 200.0 mg/kg/injection, schedule: Q01DX001 (ip), vehicle: Klucel (hydroxypropylcellulose) (HPC)); 1 of 6 (dose: 400.0 mg/kg/injection, schedule: Q01DX001 (ip), vehicle: Klucel (hydroxypropylcellulose) (HPC)).
Consider `CN(C)C(=O)Nc1ccc(Cl)cc1`, for which the survivor count under setting [5] is 3 of 6.
As for `CC(=O)[C@@]1(O)CC[C@H]2[C@@H]3CCC4=CC(=O)CC[C@]4(C)[C@@]3(F)[C@@H](O)C[C@@]21C`, the survivor count (dose: 50.0 mg/kg/injection, schedule: Q01DX Z (sc), vehicle: steroid suspending solution) is on record as 6 of 6.
In the case of `O=[N+]([O-])Nc1cc(Cl)nc(Cl)c1`, the survivor count (dose: 300.0 mg/kg/injection, schedule: Q01DX001 (ip), vehicle: carboxymethylcellulose (CMC)) was 1 of 6.
With `C[N+](C)(C)CC1CCCCC1`, the survivor count is 0 of 6 (dose: 150.0 mg/kg/injection, schedule: Q01DX001 (ip), vehicle: saline) and 0 of 6 (dose: 300.0 mg/kg/injection, schedule: Q01DX001 (ip), vehicle: saline).
With `CN1CCc2ccc(Oc3cccc4c3CCN(C)C4)cc2C1`, under setting [8], the survivor count is given as 0 of 6.
Consider `Cn1cnc([N+](=O)[O-])c1Sc1ncnc2nc[nH]c12`, for which the T/C by setting is: (dose: 27.0 mg/kg/injection, schedule: Q01DX Z (ip), vehicle: methylcellulose (MC)) 127 and 135 % of control; (dose: 40.0 mg/kg/injection, schedule: Q01DX Z (ip), vehicle: methylcellulose (MC)) 130 and 135 % of control; (dose: 60.0 mg/kg/injection, schedule: Q01DX Z (ip), vehicle: methylcellulose (MC)) 125 % of control; (dose: 125.0 mg/kg/injection, schedule: Q01DX001 (ip), vehicle: carboxymethylcellulose (CMC)) 129 % of control. The survivor count was 3 of 6 (dose: 38.0 mg/kg/injection, schedule: Q01DX Z (ip), vehicle: methylcellulose (MC)); 2 of 6 (dose: 57.0 mg/kg/injection, schedule: Q01DX Z (ip), vehicle: methylcellulose (MC)); 4 of 6 (dose: 85.0 mg/kg/injection, schedule: Q01DX Z (ip), vehicle: methylcellulose (MC)); 5 of 6 (dose: 90.0 mg/kg/injection, schedule: Q01DX Z (ip), vehicle: methylcellulose (MC)); 5 of 6 (dose: 1000.0 mg/kg/injection, schedule: Q01DX001 (ip), vehicle: carboxymethylcellulose (CMC)).
`CC1CN=C(Cc2ccc(NC(=O)c3ccc(C(=O)Nc4ccc(CC5=NCC(C)N5)cc4)cc3)cc2)N1` (stereo unspecified): the survivor count by setting is: (dose: 15.0 mg/kg/injection, schedule: Q01DX Z (ip), vehicle: water) 0 of 6; (dose: 30.0 mg/kg/injection, schedule: Q01DX Z (ip), vehicle: water) 0 of 6.
As for `CC(=O)CC(=O)C(F)(F)F.CC(=O)CC(=O)C(F)(F)F.[Mn]`, the survivor count by setting is: (dose: 200.0 mg/kg/injection, schedule: Q01DX005 (ip), vehicle: Klucel (hydroxypropylcellulose) (HPC)) 2 of 3; (dose: 400.0 mg/kg/injection, schedule: Q04DX002 (ip), vehicle: Klucel (hydroxypropylcellulose) (HPC)) 3 of 3.
For `ClC/C=C/C[P+](c1ccccc1)(c1ccccc1)c1ccccc1`, the survivor count under setting [9] is recorded as 0 of 6; the survivor count under setting [10] is reported as 0 of 6; the survivor count under setting [11] is 0 of 6; the survivor count under setting [12] is reported as 0 of 6; the survivor count under setting [4] was 0 of 6; the survivor count under setting [5] is listed as 0 of 6.
Consider `COC(=O)C1C=C2c3cccc4[nH]cc(c34)CC2N(C)C1` (stereo unspecified), for which the survivor count is, setting by setting: under setting [4], 3 of 6; under setting [5], 2 of 6.
On to `Cc1cc(NCCN(C(C)C)C(C)C)nc(/N=C(\N)Nc2ccc(Cl)c(C(F)(F)F)c2)n1`, for which the survivor count (dose: 37.5 mg/kg/injection, schedule: Q01DX009 (ip), vehicle: Klucel (hydroxypropylcellulose) (HPC)) is 6 of 6; the survivor count (dose: 40.0 mg/kg/injection, schedule: Q01DX009 (ip), vehicle: Klucel (hydroxypropylcellulose) (HPC)) is on record as 2 of 6; the survivor count (dose: 75.0 mg/kg/injection, schedule: Q01DX009 (ip), vehicle: Klucel (hydroxypropylcellulose) (HPC)) was 5 of 6; the survivor count (dose: 150.0 mg/kg/injection, schedule: Q01DX009 (ip), vehicle: Klucel (hydroxypropylcellulose) (HPC)) is recorded as 0 of 6; the survivor count (dose: 300.0 mg/kg/injection, schedule: Q01DX009 (ip), vehicle: Klucel (hydroxypropylcellulose) (HPC)) is reported as 0 of 6.
Take `CCS(=O)(=O)/C=C\S(=O)(=O)CC`: the survivor count is 1 of 6 (dose: 100.0 mg/kg/injection, schedule: Q04DX003 (ip), vehicle: Klucel (hydroxypropylcellulose) (HPC)); 0 of 6 under setting [1]; 0 of 6 under setting [2].
As for `c1ccc2c(C3CCCCN3)c[nH]c2c1` (stereo unspecified), the survivor count is, setting by setting: under setting [11], 6 of 6; (dose: 100.0 mg/kg/injection, schedule: Q04DX003 (ip), vehicle: saline) 5 of 6; under setting [6], 1 of 6; under setting [7], 0 of 6.
As for `CCCCCCCCCCCCSCCCN`, the survivor count by setting is: (dose: 100.0 mg/kg/injection, schedule: Q04DX003 (ip), vehicle: saline with Tween-80) 4 of 6; (dose: 200.0 mg/kg/injection, schedule: Q04DX003 (ip), vehicle: saline with Tween-80) 0 of 6; (dose: 400.0 mg/kg/injection, schedule: Q04DX003 (ip), vehicle: saline with Tween-80) 3 of 6.
As for `Cc1cc(CSC2=NCCCN2)c(C)cc1CSC1=NCCCN1`, the survivor count runs as follows: under setting [9], 0 of 6; under setting [10], 0 of 6; under setting [11], 0 of 6; under setting [12], 0 of 6; under setting [4], 0 of 6; under setting [5], 0 of 6.
Take `COc1ccc(C(=O)CC2CCCC(CC(=O)c3ccc(OC)cc3)N2C)cc1` (stereo unspecified): the survivor count under setting [8] is on record as 0 of 6.
Turning to `NCCCN1CCCN=C1C1=NCCCN1CCCN`, the survivor count (dose: 400.0 mg/kg/injection, schedule: Q04DX002 (ip), vehicle: saline) is given as 3 of 3.
As for `O=C(NNC(=O)c1ccc(Br)cc1)c1ccc(Cl)cc1`, the survivor count under setting [3] is on record as 6 of 6.

The values above are taken from PubChem BioAssay AID248 (DTP/NCI, 2004).
